This is an account of results in paper PMC3579733.

What all share (assay): affinity purification with mass spectrometry; one-step and two-step bait fishing taken together (final data set; both methods applied to all baits); the place does not tell which of the two gave the result
Test [1] has as its target T1, Htr18 (Halobacterium salinarum R1 (DSM 671), endogenous) (UniProt B0R474).
T1 sequence: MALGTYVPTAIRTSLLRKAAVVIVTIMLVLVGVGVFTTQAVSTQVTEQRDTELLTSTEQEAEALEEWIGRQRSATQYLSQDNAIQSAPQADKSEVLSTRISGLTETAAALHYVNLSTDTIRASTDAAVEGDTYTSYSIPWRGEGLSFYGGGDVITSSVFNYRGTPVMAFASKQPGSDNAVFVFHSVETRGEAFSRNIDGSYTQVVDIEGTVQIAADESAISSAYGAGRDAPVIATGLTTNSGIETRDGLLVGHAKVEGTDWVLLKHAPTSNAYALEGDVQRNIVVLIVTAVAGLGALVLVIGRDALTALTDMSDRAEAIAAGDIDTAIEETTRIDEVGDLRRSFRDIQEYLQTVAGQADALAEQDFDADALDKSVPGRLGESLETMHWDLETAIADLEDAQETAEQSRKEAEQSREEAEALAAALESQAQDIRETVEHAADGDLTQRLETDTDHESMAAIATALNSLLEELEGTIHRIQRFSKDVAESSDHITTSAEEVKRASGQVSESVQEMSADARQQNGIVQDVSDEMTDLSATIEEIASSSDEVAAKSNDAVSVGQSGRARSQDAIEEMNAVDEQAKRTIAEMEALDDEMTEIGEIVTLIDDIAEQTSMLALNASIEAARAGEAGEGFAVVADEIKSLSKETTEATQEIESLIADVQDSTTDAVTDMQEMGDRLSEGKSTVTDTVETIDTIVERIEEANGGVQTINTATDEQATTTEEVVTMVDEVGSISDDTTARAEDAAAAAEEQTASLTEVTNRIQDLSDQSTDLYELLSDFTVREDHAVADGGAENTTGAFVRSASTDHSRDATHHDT

Test [2] addresses T2, Htr6 (Halobacterium salinarum R1 (DSM 671), endogenous) (UniProt B0R461).
T2 sequence: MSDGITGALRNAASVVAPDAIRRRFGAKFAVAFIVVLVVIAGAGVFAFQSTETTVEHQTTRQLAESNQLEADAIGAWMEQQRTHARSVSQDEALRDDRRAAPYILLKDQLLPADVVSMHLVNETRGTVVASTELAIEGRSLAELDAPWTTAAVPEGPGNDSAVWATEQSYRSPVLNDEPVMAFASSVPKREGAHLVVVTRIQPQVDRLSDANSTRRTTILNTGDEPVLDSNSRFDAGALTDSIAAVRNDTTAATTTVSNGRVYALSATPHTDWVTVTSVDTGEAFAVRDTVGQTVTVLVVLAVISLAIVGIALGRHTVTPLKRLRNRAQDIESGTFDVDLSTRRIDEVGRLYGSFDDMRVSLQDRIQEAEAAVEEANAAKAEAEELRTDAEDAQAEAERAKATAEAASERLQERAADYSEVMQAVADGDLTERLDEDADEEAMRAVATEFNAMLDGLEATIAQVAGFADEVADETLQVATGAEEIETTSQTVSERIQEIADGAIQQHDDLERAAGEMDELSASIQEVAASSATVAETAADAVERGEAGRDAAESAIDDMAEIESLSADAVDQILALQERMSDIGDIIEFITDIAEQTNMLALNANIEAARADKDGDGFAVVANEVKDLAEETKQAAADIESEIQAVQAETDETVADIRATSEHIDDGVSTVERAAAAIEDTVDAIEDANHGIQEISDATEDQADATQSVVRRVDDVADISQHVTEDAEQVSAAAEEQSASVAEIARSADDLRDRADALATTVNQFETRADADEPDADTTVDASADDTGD

Test [3] has as its target T3, CosT (Halobacterium salinarum R1 (DSM 671), endogenous) (UniProt B0R6A7).
T3 sequence: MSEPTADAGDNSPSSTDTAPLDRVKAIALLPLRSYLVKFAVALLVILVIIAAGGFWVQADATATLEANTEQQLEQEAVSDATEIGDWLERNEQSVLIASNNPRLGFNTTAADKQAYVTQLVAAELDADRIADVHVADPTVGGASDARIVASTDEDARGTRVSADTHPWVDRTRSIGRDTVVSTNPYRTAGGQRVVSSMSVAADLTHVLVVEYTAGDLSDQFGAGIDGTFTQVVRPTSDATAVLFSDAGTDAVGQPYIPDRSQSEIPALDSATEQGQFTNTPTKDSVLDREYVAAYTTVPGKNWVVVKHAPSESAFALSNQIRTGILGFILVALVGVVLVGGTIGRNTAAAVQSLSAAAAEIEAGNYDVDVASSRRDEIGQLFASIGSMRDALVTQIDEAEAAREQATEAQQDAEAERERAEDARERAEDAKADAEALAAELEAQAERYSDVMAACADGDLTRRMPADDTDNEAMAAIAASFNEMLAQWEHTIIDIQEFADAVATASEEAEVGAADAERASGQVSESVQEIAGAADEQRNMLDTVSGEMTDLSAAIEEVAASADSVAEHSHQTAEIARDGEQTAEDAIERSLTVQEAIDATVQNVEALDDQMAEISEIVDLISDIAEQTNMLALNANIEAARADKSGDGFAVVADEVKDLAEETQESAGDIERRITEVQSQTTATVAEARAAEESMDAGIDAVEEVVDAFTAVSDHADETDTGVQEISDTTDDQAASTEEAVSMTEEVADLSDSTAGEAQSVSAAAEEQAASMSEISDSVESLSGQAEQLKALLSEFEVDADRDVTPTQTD

Test [4] concerns the target OE4643R (Halobacterium salinarum R1 (DSM 671)).
Test [5] has as its target T4, HtrII (Halobacterium salinarum R1 (DSM 671), endogenous) (UniProt B0R6B1).
T4 sequence: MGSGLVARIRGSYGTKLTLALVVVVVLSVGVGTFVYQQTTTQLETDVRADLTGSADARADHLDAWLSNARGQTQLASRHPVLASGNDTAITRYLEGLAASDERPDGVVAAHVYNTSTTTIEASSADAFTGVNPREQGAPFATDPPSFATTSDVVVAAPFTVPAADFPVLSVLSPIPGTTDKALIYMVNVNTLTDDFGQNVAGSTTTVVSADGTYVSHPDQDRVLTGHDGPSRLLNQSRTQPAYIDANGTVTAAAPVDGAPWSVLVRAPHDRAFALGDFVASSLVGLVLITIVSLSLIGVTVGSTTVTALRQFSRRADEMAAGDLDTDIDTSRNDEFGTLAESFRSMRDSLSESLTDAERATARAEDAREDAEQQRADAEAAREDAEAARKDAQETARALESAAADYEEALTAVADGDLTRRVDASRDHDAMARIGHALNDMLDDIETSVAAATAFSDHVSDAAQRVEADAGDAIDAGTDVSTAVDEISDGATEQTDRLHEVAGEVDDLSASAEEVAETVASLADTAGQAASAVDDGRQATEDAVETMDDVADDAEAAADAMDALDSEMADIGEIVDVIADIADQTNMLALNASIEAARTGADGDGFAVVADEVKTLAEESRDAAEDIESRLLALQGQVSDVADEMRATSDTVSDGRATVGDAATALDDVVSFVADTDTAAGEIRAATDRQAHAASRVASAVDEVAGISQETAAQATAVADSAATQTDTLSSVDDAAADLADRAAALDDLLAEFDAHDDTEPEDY

The target of test [6] is T5, BasT (Halobacterium salinarum R1 (DSM 671), endogenous) (UniProt B0R6I4).
T5 sequence: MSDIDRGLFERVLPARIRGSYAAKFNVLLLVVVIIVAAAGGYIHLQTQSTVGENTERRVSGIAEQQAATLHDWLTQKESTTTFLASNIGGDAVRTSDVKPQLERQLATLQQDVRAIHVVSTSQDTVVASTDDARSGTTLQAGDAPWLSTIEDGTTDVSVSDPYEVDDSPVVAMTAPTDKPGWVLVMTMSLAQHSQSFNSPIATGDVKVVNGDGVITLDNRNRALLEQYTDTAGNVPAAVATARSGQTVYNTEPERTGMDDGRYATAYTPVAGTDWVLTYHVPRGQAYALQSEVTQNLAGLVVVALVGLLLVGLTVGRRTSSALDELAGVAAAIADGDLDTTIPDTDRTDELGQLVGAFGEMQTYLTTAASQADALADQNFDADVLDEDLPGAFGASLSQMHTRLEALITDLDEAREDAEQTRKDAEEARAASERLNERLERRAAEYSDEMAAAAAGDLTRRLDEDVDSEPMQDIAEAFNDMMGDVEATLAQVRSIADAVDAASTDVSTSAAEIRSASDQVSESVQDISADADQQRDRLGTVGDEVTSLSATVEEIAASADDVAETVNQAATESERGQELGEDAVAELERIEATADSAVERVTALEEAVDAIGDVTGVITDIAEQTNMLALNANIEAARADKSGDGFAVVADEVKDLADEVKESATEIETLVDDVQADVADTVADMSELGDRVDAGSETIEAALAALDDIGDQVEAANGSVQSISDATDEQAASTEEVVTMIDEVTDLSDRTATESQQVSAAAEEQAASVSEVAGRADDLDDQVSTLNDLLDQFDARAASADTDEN

Results are given in words; binding and its absence hold for the method and conditions named. Binding seen in cells or lysates may run through a third protein. A yes stands for co-enrichment or nearness to the bait. Other partners may have been found. For some assays here: No binding means not detected with the bait.

Regarding OE2196F, the binding entry in test [1] is “binds”.
With OE2170R, the binding entry in test [2] is on record as “binds”.

B1: CosB (protein, UniProt B0R6A8 30-334)
chain: GCTTITGGGDTTSTGGGDSGSSSIVVGSKGYGEQVTLGYVAYELLANTTNATLVDETGFGGNAAISEAYRTGNVHAYYDYMGSLWSSHPPKHDSADFDTPDAQYDALKSEMESEHPIRILDRADWQNTWAVFVAERAVEGTGIQSISDLAAHVNSRNYDIRPAFGDGFRSRSDGLDALLDYYEFDPERVTAWASEREFLETASAQAAGTAVDEGYADLGVGYSTSAWLTDVDSVRVLDDDRNFWPFFHPVGVVHEDVATDAVVAALNTMPDAIPDAETMQALNSRAAASGNQQAAADHLQNNDFI
Consider B1, for which the binding entry in test [3] is “binds”; in test [4], “no binding”.

B2: sensory rhodopsin II (receptor, UniProt P71411 1-237)
chain: MALTTWFWVGAVGMLAGTVLPIRDCIRHPSHRRYDLVLAGITGLAAIAYTTMGLGITATTVGDRTVYLARYIDWLVTTPLIVLYLAMLARPGHRTSAWLLAADVFVIAAGIAAALTTGVQRWLFFAVGAAGYAALLYGLLGTLPRALGDDPRVRSLFVTLRNITVVLWTLYPVVWLLSPAGIGILQTEMYTIVVVYLDFISKVAFVAFAVLGADAVSRLVAADAAAPATAEPTPDGD
Regarding B2, the values for the binding entry in test [4] and in test [5] were “no binding” and “binds”, respectively.

B3: BasB (protein, UniProt B0R6I5 32-413)
chain: QPVTVGSLLPLSGPGSLGALAADHQRAIDTAVEHANRGGGINGRDVVHVSKDTEADPSVAADRYATLAADESPLAIVGPVLSGVTTALTEQAAADAQLLVSPSTTAPAIATAGRSDGQKFVARTCPNDSQQAAVMAKIVDDDMYAAADTATILYVDNAFGAALADVLADRLGADLLASVPYQGGTDTPGGPVDDALAPDPDAVAFIGSPGSSSGVIDELVGREYGGEIALSSALASASSPPSWNGAYTATVNSASTVGTKRLRRALSDATPLQPYTENAYDAAALALLAASYSGDPTPRAVAGALQSVSGGVGHSITVGDFGRATDLIDAGRELNYNGATGNVDLTAALEPVTGYLIQQLTDAGIETRELLKSGYFTDGGDA
In the case of B3, the binding entry in test [4] is recorded as “no binding”; in test [6], “binds”.
